According to publication PMC8384837:
The list shows a part of the results. At the low end of the ranking the order means little.

What follows are sequences tested against T1, PUM1 PUF domain R3-THE R4-TFR C935T + R936H + Q939E + N971T + H972F + Q975R (UniProt Q14671). Conditions: yeast three-hybrid, YBZ-1, SC-Leu-His + 0.5 mM 3-AT, 4 days.
T1 sequence: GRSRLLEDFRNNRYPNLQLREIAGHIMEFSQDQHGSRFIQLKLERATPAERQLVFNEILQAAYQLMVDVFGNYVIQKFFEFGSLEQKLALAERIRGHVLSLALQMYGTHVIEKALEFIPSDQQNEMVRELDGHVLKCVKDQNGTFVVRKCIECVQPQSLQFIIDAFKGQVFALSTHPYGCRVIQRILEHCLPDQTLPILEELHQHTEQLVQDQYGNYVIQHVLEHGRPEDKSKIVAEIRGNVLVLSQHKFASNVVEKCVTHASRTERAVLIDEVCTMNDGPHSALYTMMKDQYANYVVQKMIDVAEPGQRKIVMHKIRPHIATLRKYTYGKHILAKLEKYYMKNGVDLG
In the case of “GGCUAGAACUAGUGGAUCCCCCGGCGCCCGGCGGCUCGAGCCCGGGUAAGUACACGACGUCUGCAUGCCGCCGGGCGCCAUGCCUGCAGGUCGACUCUAGAAAACAUG”, the binding signal (log2 enrichment (interaction score)) is reported as -6.58. For “GGCUAGAACUAGUGGAUCCCCCGGCGCCCGGCGGCUCGAGCCCGGGUAAGUUUAUGCCGUCUGCAUGCCGCCGGGCGCCAUGCCUGCAGGUCGACUCUAGAAAACAUG”, the binding signal (log2 enrichment (interaction score)) was -7.29. Work on “GGCUAGAACUAGUGGAUCCCCCGGCGCCCGGCGGCUCGAGCCCGGGUAAGUGGCUUAAGUCUGCAUGCCGCCGGGCGCCAUGCCUGCAGGUCGACUCUAGAAAACAUG” yielded a binding signal (log2 enrichment (interaction score)) of -7.15. For “GGCUAGAACUAGUGGAUCCCCCGGCGCCCGGCGGCUCGAGCCCGGGUAAGGGAACAUCGUCUGCAUGCCGCCGGGCGCCAUGCCUGCAGGUCGACUCUAGAAAACAUG”, the binding signal (log2 enrichment (interaction score)) was under -6.06. “GGCUAGAACUAGUGGAUCCCCCGGCGCCCGGCGGCUCGAGCCCGGGUAAGUCUGCAAAGUCUGCAUGCCGCCGGGCGCCAUGCCUGCAGGUCGACUCUAGAAAACAUG” showed a binding signal (log2 enrichment (interaction score)) of under -6.93. Sequence “GGCUAGAACUAGUGGAUCCCCCGGCGCCCGGCGGCUCGAGCCCGGGUAAGGAUAAGUCGUCUGCAUGCCGCCGGGCGCCAUGCCUGCAGGUCGACUCUAGAAAACAUG” has a binding signal (log2 enrichment (interaction score)) of -5.98. In the case of “GGCUAGAACUAGUGGAUCCCCCGGCGCCCGGCGGCUCGAGCCCGGGUAAGUUGACGUUGUCUGCAUGCCGCCGGGCGCCAUGCCUGCAGGUCGACUCUAGAAAACAUG”, the binding signal (log2 enrichment (interaction score)) is reported as under -7.45. For “GGCUAGAACUAGUGGAUCCCCCGGCGCCCGGCGGCUCGAGCCCGGGUAAGUUUACGGGGUCUGCAUGCCGCCGGGCGCCAUGCCUGCAGGUCGACUCUAGAAAACAUG”, the binding signal (log2 enrichment (interaction score)) was under -6.81. “GGCUAGAACUAGUGGAUCCCCCGGCGCCCGGCGGCUCGAGCCCGGGUAAGCUUGGUUAGUCUGCAUGCCGCCGGGCGCCAUGCCUGCAGGUCGACUCUAGAAAACAUG” was tested, and the binding signal (log2 enrichment (interaction score)) was under -7.7. “GGCUAGAACUAGUGGAUCCCCCGGCGCCCGGCGGCUCGAGCCCGGGUAAGCUCGGGUAGUCUGCAUGCCGCCGGGCGCCAUGCCUGCAGGUCGACUCUAGAAAACAUG” was tested, and the binding signal (log2 enrichment (interaction score)) was -6.13. Work on “GGCUAGAACUAGUGGAUCCCCCGGCGCCCGGCGGCUCGAGCCCGGGUAAGUCUCACUUGUCUGCAUGCCGCCGGGCGCCAUGCCUGCAGGUCGACUCUAGAAAACAUG” yielded a binding signal (log2 enrichment (interaction score)) of -7.39. With “GGCUAGAACUAGUGGAUCCCCCGGCGCCCGGCGGCUCGAGCCCGGGUAAGGGGAAAUAGUCUGCAUGCCGCCGGGCGCCAUGCCUGCAGGUCGACUCUAGAAAACAUG” the binding signal (log2 enrichment (interaction score)) was -7.78. “GGCUAGAACUAGUGGAUCCCCCGGCGCCCGGCGGCUCGAGCCCGGGUAAGAGUGGAAAGUCUGCAUGCCGCCGGGCGCCAUGCCUGCAGGUCGACUCUAGAAAACAUG” was tested, and the binding signal (log2 enrichment (interaction score)) was under -7.34. “GGCUAGAACUAGUGGAUCCCCCGGCGCCCGGCGGCUCGAGCCCGGGUAAGAGCACUAAGUCUGCAUGCCGCCGGGCGCCAUGCCUGCAGGUCGACUCUAGAAAACAUG” was tested, and the binding signal (log2 enrichment (interaction score)) was -6.29. “GGCUAGAACUAGUGGAUCCCCCGGCGCCCGGCGGCUCGAGCCCGGGUAAGUUAACCAAGUCUGCAUGCCGCCGGGCGCCAUGCCUGCAGGUCGACUCUAGAAAACAUG” was tested, and the binding signal (log2 enrichment (interaction score)) was -6.39. Work on “GGCUAGAACUAGUGGAUCCCCCGGCGCCCGGCGGCUCGAGCCCGGGUAAGAUUACGAAGUCUGCAUGCCGCCGGGCGCCAUGCCUGCAGGUCGACUCUAGAAAACAUG” yielded a binding signal (log2 enrichment (interaction score)) of -5.12. Work on “GGCUAGAACUAGUGGAUCCCCCGGCGCCCGGCGGCUCGAGCCCGGGUAAGGGGCAGUCGUCUGCAUGCCGCCGGGCGCCAUGCCUGCAGGUCGACUCUAGAAAACAUG” yielded a binding signal (log2 enrichment (interaction score)) of -7.11. In the case of “GGCUAGAACUAGUGGAUCCCCCGGCGCCCGGCGGCUCGAGCCCGGGUAAGAUUAAUUAGUCUGCAUGCCGCCGGGCGCCAUGCCUGCAGGUCGACUCUAGAAAACAUG”, the binding signal (log2 enrichment (interaction score)) is reported as -5.96. “GGCUAGAACUAGUGGAUCCCCCGGCGCCCGGCGGCUCGAGCCCGGGUAAGUAAUCAUAGUCUGCAUGCCGCCGGGCGCCAUGCCUGCAGGUCGACUCUAGAAAACAUG” gave a binding signal (log2 enrichment (interaction score)) of -7.65. Sequence “GGCUAGAACUAGUGGAUCCCCCGGCGCCCGGCGGCUCGAGCCCGGGUAAGUCCAAGACGUCUGCAUGCCGCCGGGCGCCAUGCCUGCAGGUCGACUCUAGAAAACAUG” has a binding signal (log2 enrichment (interaction score)) of -7.11. “GGCUAGAACUAGUGGAUCCCCCGGCGCCCGGCGGCUCGAGCCCGGGUAAGUCCACAGCGUCUGCAUGCCGCCGGGCGCCAUGCCUGCAGGUCGACUCUAGAAAACAUG” showed a binding signal (log2 enrichment (interaction score)) of -6.71. Work on “GGCUAGAACUAGUGGAUCCCCCGGCGCCCGGCGGCUCGAGCCCGGGUAAGUGGACGUGGUCUGCAUGCCGCCGGGCGCCAUGCCUGCAGGUCGACUCUAGAAAACAUG” yielded a binding signal (log2 enrichment (interaction score)) of -7.29. “GGCUAGAACUAGUGGAUCCCCCGGCGCCCGGCGGCUCGAGCCCGGGUAAGUUUAAGGCGUCUGCAUGCCGCCGGGCGCCAUGCCUGCAGGUCGACUCUAGAAAACAUG” was tested, and the binding signal (log2 enrichment (interaction score)) was under -5.77. “GGCUAGAACUAGUGGAUCCCCCGGCGCCCGGCGGCUCGAGCCCGGGUAAGUUUACCCAGUCUGCAUGCCGCCGGGCGCCAUGCCUGCAGGUCGACUCUAGAAAACAUG” was tested, and the binding signal (log2 enrichment (interaction score)) was -7.01. For “GGCUAGAACUAGUGGAUCCCCCGGCGCCCGGCGGCUCGAGCCCGGGUAAGUGGAACGAGUCUGCAUGCCGCCGGGCGCCAUGCCUGCAGGUCGACUCUAGAAAACAUG”, the binding signal (log2 enrichment (interaction score)) was -7.09. “GGCUAGAACUAGUGGAUCCCCCGGCGCCCGGCGGCUCGAGCCCGGGUAAGAUUAAAAAGUCUGCAUGCCGCCGGGCGCCAUGCCUGCAGGUCGACUCUAGAAAACAUG” gave a binding signal (log2 enrichment (interaction score)) of -7.07. In the case of “GGCUAGAACUAGUGGAUCCCCCGGCGCCCGGCGGCUCGAGCCCGGGUAAGUUGCCGUCGUCUGCAUGCCGCCGGGCGCCAUGCCUGCAGGUCGACUCUAGAAAACAUG”, the binding signal (log2 enrichment (interaction score)) is reported as -6.61. “GGCUAGAACUAGUGGAUCCCCCGGCGCCCGGCGGCUCGAGCCCGGGUAAGUGGAUAAAGUCUGCAUGCCGCCGGGCGCCAUGCCUGCAGGUCGACUCUAGAAAACAUG” was tested, and the binding signal (log2 enrichment (interaction score)) was -6.34. “GGCUAGAACUAGUGGAUCCCCCGGCGCCCGGCGGCUCGAGCCCGGGUAAGUUUCAGGAGUCUGCAUGCCGCCGGGCGCCAUGCCUGCAGGUCGACUCUAGAAAACAUG” gave a binding signal (log2 enrichment (interaction score)) of -8.11. “GGCUAGAACUAGUGGAUCCCCCGGCGCCCGGCGGCUCGAGCCCGGGUAAGGAUAAAUCGUCUGCAUGCCGCCGGGCGCCAUGCCUGCAGGUCGACUCUAGAAAACAUG” was tested, and the binding signal (log2 enrichment (interaction score)) was under -6.89. “GGCUAGAACUAGUGGAUCCCCCGGCGCCCGGCGGCUCGAGCCCGGGUAAGAGGGAGAAGUCUGCAUGCCGCCGGGCGCCAUGCCUGCAGGUCGACUCUAGAAAACAUG” showed a binding signal (log2 enrichment (interaction score)) of under -6.73.
